Results: US8263133B2 (The Regents of the University of California, priority 2009, dated 2012)

Test: peptide made by a vendor
Details: whole synthesis

## CCVVVT-OH (cysteine pairing not given here)
  purity (crude or final not stated): 98.5%

Where no end group is shown, it is not given here.
